Assay results taken from patent US20240368727A1, “METHOD OF SELECTIVE PRECIPITATION OF METALS USING AMIDE COMPOUNDS” (The University Court of the University of Edinburgh, priority 2021, published 2024).

Assay: Precipitation of Au by L from various aqueous matrices (Table 1)
Conditions: 1 hour, room temperature
Description: Conditions: 2 mL Au solution contacted with 0.059 g L for 1 hour, room temperature. Solution filtered and diluted 100× in 2% HNO3 prior to ICP-OES analysis. *HAuCl4 used. **Au^0 added to sulfuric acid solution with a few drops of 30% hydrogen peroxide added to aid dissolution of Au. All solutions were diluted 100× prior to ICP-OES analysis.

CN(CCN(C)C(=O)c1ccccc1)C(=O)c1ccccc1 [L]
Au concentration after contact with L (2 mol L^−1 H2SO4 and 2M NaBr, Au^0 with H2O2, initial Au 1930 mg L^−1, 0.059 g L): 9.00 mg/L
Au concentration after contact with L (2 mol L^−1 H2SO4 and 2M NaCl, Au^0 with H2O2, initial Au 1940 mg L^−1, 0.059 g L): 12.2 mg/L
Au concentration after contact with L (20% Aqua regia, HAuCl4 used, initial Au 1920 mg L^−1, 0.059 g L): 4.00 mg/L
Au concentration after contact with L (100% Aqua regia, HAuCl4 used, initial Au 1920 mg L^−1, 2 mL contacted with 0.059 g L): 6.00 mg/L
